Assay results taken from PubChem BioAssay AID1487 (National Center for Advancing Translational Sciences (NCATS), 2009).
The list shows a part of the results. Shown are side measurements of this screen, not its main read-out; they come without a call. The list favours compounds with an active or inconclusive main result. Potencies come from curve fits of mixed quality, noted in brackets.

Test: qHTS Assay for Modulators of Lamin A Splicing
Settings: HeLa LMNA splicing GFP/RFP minigene ratio, 48 h
In short: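 S3 HeLa stable clones carrying a lamin A-EGFP splicing minigene plus DsRed2 were seeded at 600 cells/well in Opti-MEM with 2% FBS, pin-dosed and incubated 48 h at 37°C. Acumen cytometry (488 nm) gave the GFP/RFP total-intensity ratio.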

[1] = measured here: GFP splicing reporter channel
[2] = measured here: RFP viability control channel

Structure (SMILES) | AC50 [1] | AC50 [2]
Cc1cc2c(cc1S(N)(=O)=O)S(=O)(=O)CCC2 | 0.0251 µM [falling, full curve] | 0.708 µM [falling, single point]
Cc1ccccc1OCC(O)Cn1c2ccccc2c2ccccc21 (stereo not drawn) | 20 µM [falling, single point] | 25.1 µM [falling, single point]
Cc1ccc(Nc2nc(NCc3ccco3)c3ccccc3n2)cc1 | 35.5 µM [falling, single point] | 35.5 µM [falling, single point]
O=C(CSc1nc2ccccc2c(=O)n1Cc1ccco1)N1CCN(c2ccccc2)CC1 | 11.2 µM [rising, partial curve] | 12.6 µM [rising, partial curve]
CC(C)C(=O)NC(=S)Nc1ccc(S(=O)(=O)Nc2ccccc2)cc1 | 14.1 µM [rising, single point] | 35.5 µM [rising, single point]
CC1Cc2ccccc2N1CC(=O)Nc1cccc(S(N)(=O)=O)c1 (stereo not drawn) | – | 0.0282 µM [falling, full curve, poor fit]
COc1ccc(CN=C2NC(=O)CC(C(=O)Nc3ccc([N+](=O)[O-])cc3C)S2)cc1 (stereo not drawn) | 12.6 µM [rising, partial curve, poor fit] | 20 µM [rising, partial curve, poor fit]
O=C(Nc1ccc(Cl)cc1)Nc1ccccc1NS(=O)(=O)c1cccs1 | – | 35.5 µM [rising, partial curve]
COc1cccc(CNC(=O)c2cnc3sc(N4CCCC4)nn3c2=O)c1OC | 0.00891 µM [falling, full curve, poor fit] | 0.562 µM [falling, full curve, poor fit]
CCCC(=O)Nc1cccc2c1CCCC2 | – | 0.126 µM [falling, full curve, poor fit]
Cc1ccc(C(=O)N2CCN(c3ccc(Cl)cc3)CC2)cc1 | 12.6 µM [rising, partial curve] | 12.6 µM [rising, partial curve]
Cc1c(-c2ccccc2)oc2c(C(=O)OCC(=O)Nc3ccc(C(N)=O)cc3)cccc2c1=O | 0.0316 µM [rising, full curve] | 0.0282 µM [rising, full curve, poor fit]
COc1ccc(CCNC(=O)c2ccc(Cl)c(S(=O)(=O)N(C)c3ccccc3)c2)cc1 | – | 2.24 µM [rising, full curve]
COc1ccccc1OCC(=O)OCC(=O)Nc1ncc(Cl)cc1Cl | 35.5 µM [rising, single point] | 20 µM [rising, single point]
CCCN(Cc1ccccc1)C(=S)Nc1cccc(C(F)(F)F)c1 | – | 17.8 µM [rising, partial curve]
COc1ccc(C2NC(=O)N(C)C3=C2C(=O)N(c2ccc(Br)cc2)C3)cc1 (stereo not drawn) | – | 0.794 µM [falling, partial curve, poor fit]
CCCCN1/C(=C/c2ccc3ccccc3[n+]2CC)Sc2ccccc21 | 0.398 µM [rising, single point] | –
CC(CSc1nnnn1-c1ccccc1)Cn1c(N2CCN(C)CC2)nc2c1c(=O)[nH]c(=O)n2C (stereo not drawn) | – | 35.5 µM [falling, single point]

Structure (SMILES) | AC50 [1] | AC50 [2]
Clc1ccccc1Cn1nnc2c(NCC3CC3)ncnc21 | – | 11.2 µM [rising, single point]
COc1cccc2sc(N(Cc3cccnc3)C(=O)c3ccc4c(c3)OCCO4)nc12 | 4.47 µM [rising, partial curve] | –
COc1ccc2c(C)nc(Nc3nc(C)c(C)c(=O)[nH]3)nc2c1 | – | 7.08 µM [falling, full curve, poor fit]
CSc1ncccc1C(=O)OCC(=O)c1cccs1 | – | 22.4 µM [rising, partial curve]
COc1ccc(CC(=O)c2ccc(OC)c(OC)c2)cc1 | 35.5 µM [rising, single point] | –
CCN1CCN(Cc2c(O)ccc3c(C)c(-c4ccc(OC)cc4)c(=O)oc23)CC1 | – | 35.5 µM [rising, single point]
Cc1cc(SCC(=O)NCc2ccc(Cl)cc2)nc(=O)[nH]1 | – | 2.51 µM [rising, partial curve, poor fit]
Cc1ccc(-n2nc(-c3ccccc3)cc2Nc2ccccc2N)cc1 | – | 35.5 µM [rising, single point]
Cn1c2ccccc2c2c(C(=O)N3CCN(C(=O)c4ccco4)CC3)cn(C3CCCCC3)c(=O)c21 | 25.1 µM [rising, single point] | 22.4 µM [rising, single point]
Cc1ccc(S(=O)(=O)N2CCCCC2)cc1NC(=O)CSc1ccc2c(c1)OCCO2 | 11.2 µM [rising, single point] | 12.6 µM [rising, partial curve]
Cc1ccc(C)c(NC(=O)CN2CCSc3ccc(S(=O)(=O)N4CCCC4)cc32)c1 | – | 0.0178 µM [falling, full curve, poor fit]
COC(=O)c1c(-c2ccc(Cl)cc2)noc1N1CCN(c2cc(C)ccc2C)CC1 | 4.47 µM [falling, full curve] | 10 µM [falling, partial curve, poor fit]
O=C(O)CSc1nnc(COc2cccc3ccccc23)n1Cc1ccccc1 | 0.0794 µM [falling, full curve, poor fit] | –
O=C1CS(=O)(=O)C2(C(=O)N(Cc3ccccc3Cl)c3ccccc32)N1c1ccc(F)cc1 (stereo not drawn) | – | 7.08 µM [falling, partial curve, poor fit]
CCCC(=O)N(c1ccc2oc(C)c(C(C)=O)c2c1)S(=O)(=O)c1ccc(CC)cc1 | – | 31.6 µM [rising, single point]
O=C(NCCN1CCOCC1)c1ccc(N2CCCC2)c([N+](=O)[O-])c1 | – | 6.31 µM [falling, partial curve, poor fit]
O=S(=O)(Nc1ccc2c(c1)nc1n2CCN(Cc2ccccc2)C1)c1ccc(F)cc1 | – | 7.94 µM [rising, partial curve, poor fit]

No new results follow: 2 of the compounds above.
Structure (SMILES) | AC50 [1] | AC50 [2]
CC(CSc1nnnn1-c1ccccc1)Cn1c(N2CCN(C)CC2)nc2c1c(=O)[nH]c(=O)n2C (stereo not drawn) | – | 35.5 µM [falling, single point]
Clc1ccccc1Cn1nnc2c(NCC3CC3)ncnc21 | – | 11.2 µM [rising, single point]
